According to patent publication US20220395514A1, “LOW-DOSE CELECOXIB PREPARATION” (ARISSA PHARMA LTD, priority 2019, published 2022):
At least one compound was matched to its structure with a doubt left.

Assay: Screening celecoxib nanoparticulate dispersions via wet milling: particle size by laser particle size detector
Format: physicochemical
Conditions: representative batch before milling (FIG. 2A)

For `Cc1ccc(-c2cc(C(F)(F)F)nn2-c2ccc(S(N)(=O)=O)cc2)cc1` [celecoxib], the D50 was 7.7 μm and the D90 was 104.7 μm.
